From paper PMC7950132 (Molecular & Cellular Proteomics : MCP, 2021)
Results are given in words; binding and its absence hold for the method and conditions named. Some entries that bind do so weakly or less than the wild type.

Chains of the proteins cited; added tags and fusions are not shown. Lines headed by an entry give the natural chain unless they say otherwise; changes in a name come on top.
UniProt Q93034: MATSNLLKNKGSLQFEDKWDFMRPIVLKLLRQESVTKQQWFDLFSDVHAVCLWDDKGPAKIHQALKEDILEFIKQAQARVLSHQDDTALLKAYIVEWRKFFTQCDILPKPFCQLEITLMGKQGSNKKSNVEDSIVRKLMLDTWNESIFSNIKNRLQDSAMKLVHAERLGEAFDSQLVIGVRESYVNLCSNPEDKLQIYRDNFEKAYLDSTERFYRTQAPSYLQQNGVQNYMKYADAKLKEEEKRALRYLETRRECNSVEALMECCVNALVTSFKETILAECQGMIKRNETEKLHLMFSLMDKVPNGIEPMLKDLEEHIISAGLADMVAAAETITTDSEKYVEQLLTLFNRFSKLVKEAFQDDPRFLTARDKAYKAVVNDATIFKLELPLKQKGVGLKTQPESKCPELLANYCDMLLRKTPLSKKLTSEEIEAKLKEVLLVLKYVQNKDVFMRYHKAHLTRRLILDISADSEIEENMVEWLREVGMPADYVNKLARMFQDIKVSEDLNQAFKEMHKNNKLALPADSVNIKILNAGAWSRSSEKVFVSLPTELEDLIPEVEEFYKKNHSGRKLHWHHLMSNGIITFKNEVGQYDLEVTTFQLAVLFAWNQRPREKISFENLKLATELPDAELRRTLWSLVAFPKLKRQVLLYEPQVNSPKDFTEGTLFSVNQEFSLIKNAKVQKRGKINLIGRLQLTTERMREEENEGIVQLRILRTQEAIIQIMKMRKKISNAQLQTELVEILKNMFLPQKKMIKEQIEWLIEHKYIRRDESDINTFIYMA
UniProt Q9WTZ1: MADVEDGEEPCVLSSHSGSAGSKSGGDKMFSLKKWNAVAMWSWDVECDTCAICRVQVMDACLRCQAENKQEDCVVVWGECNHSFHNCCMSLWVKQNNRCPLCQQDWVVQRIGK

What was measured:
[1] = target: ankyrin repeat and SOCS box protein 9 (ASB9) (human) (UniProt Q96DX5); assay: co-purification (Ni-NTA, then SEC); coexpression in E. coli BL21 and mixing of lysates; His tags on ASB9 and CUL5; composition checked by SEC, SDS-PAGE and LC MS/MS
CUL5(NEDD8) = target: T1, CUL5(NEDD8) (human, UniProt Q93034 1-780; Q15843 1-76, NEDD8 attached at K724); assay: as above
T1 construct: cullin 5, human; NEDD8, human, conjugated to CUL5; Always present together with RBX2 and ELOB/C in the experiments; written alone for the pairs inside the complexes; The His tag on CUL5 served the Ni-NTA step before TEV cleavage; also called neddylated CUL5; source: E. coli BL21, coexpressed with RBX2 and ELOB/C, neddylated in mixed lysates, purified (Ni-NTA, SEC); not shown: His6, N-terminal, …

binding [1]: binds
binding (CUL5(NEDD8)): binds
Substance: ring box protein 2 (RBX2) (from UniProt Q9WTZ1 1-113)
